From paper PMC6754381
Results are given in words; binding and its absence hold for the method and conditions named. In cells and extracts the contact can be indirect. Some binding calls cover weakened binding; strength is not graded here.

Sequences of proteins named here, by UniProt entry; tags and fusion partners are left off. Residues count along the entry.
UniProt P09055, residues 21-798: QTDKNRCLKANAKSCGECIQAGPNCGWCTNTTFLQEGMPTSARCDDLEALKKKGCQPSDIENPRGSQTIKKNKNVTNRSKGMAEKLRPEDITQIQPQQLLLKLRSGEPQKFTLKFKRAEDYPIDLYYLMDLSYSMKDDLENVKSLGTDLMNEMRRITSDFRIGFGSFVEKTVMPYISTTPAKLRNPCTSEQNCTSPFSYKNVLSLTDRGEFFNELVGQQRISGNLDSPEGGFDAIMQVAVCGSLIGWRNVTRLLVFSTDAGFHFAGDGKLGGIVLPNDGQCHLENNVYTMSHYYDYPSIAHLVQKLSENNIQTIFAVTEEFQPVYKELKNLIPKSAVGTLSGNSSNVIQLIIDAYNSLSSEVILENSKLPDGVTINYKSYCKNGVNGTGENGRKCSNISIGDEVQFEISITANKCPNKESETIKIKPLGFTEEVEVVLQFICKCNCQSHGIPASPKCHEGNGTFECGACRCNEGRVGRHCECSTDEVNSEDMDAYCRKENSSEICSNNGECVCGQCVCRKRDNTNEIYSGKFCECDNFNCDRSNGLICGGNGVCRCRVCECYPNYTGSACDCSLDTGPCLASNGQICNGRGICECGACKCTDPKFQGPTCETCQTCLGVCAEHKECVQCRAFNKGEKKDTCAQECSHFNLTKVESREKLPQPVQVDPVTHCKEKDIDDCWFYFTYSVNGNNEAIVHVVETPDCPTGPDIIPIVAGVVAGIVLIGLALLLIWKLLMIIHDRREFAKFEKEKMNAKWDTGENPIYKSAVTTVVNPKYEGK

Molecular target: T1, Dab2, endogenous in mouse neutrophils (mouse (endogenous in bone marrow-derived neutrophils)) (UniProt P98078)
T1 sequence: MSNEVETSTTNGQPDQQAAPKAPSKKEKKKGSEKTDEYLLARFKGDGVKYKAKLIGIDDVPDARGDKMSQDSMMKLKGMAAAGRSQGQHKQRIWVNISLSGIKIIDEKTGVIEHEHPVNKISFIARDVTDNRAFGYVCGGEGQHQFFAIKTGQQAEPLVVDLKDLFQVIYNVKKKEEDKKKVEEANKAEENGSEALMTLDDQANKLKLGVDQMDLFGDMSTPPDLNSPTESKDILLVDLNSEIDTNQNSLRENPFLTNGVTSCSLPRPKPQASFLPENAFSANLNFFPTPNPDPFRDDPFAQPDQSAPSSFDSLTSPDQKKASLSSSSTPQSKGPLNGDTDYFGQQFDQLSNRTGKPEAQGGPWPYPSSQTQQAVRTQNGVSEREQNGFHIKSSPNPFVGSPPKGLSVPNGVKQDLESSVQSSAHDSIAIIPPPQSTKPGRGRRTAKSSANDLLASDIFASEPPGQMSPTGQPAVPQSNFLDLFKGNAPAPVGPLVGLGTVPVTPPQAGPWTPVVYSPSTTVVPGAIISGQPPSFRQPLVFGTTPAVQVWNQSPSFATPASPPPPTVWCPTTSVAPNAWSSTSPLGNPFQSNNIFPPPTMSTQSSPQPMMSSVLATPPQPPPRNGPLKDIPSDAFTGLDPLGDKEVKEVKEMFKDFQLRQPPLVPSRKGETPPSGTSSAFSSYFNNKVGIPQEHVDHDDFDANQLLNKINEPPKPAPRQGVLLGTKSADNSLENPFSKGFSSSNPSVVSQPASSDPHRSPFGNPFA
Test: co-IP; lysates of cultured mouse bone marrow-derived neutrophils (untreated, control conditioned medium, conditioned medium of IFNλ-overexpressing RPE cells 1:1 for 6 h, or recombinant IFNλ 200 U/mL for 2 h); 70 ug lysate precipitated with 10 ug immobilised LCN-2 or Dab2 antibody at 4 °C overnight (Pierce Co-Immunoprecipitation Kit); western blot; normal rabbit IgG as negative control

binding: binds
Substance: Integrin β1, endogenous in mouse neutrophils (from UniProt P09055 21-798) (receptor)
